In the experiment the target is TuMV-6K2 (yeast two-hybrid bait, pBT-STE-TuMV-6K2) (turnip mosaic virus (TuMV)). The experiment is described as follows: two-hybrid; preys pPR3-AtTETs or pPR3-NbTETs with bait pBT-STE-TuMV-6K2 co-transformed into yeast NMY51; ten-fold dilutions on SD/-Leu/-Trp and SD/-Leu/-Trp/-His/-Ade.

Data on one molecule can be found in publication PMC12598048.

No constants are given. Whether binding was seen depends on the method and setting. A result given as binding can be weak or reduced; the word gives no strength.

B1: AtTET1 (yeast two-hybrid prey) (protein, UniProt Q9FIQ5 1-269)
chain: MPLSNNVIGCINFITVLLSIPVIGAGIWLAIGTVNSCVKLLQWPVIILGVLILLVGLAGFIGGFWRITWLLVVYLIAMLILIVLLGCLVGFIYMVTIRGSGHPEPSRAYLEYSLQDFSGWLRRRVQRSYKWERIRTCLSTTTICPELNQRYTLAQDFFNAHLDPIQSGCCKPPTKCGFTFVNPTYWISPIDMSADMDCLNWSNDQNTLCYTCDSCKAGLLANIKVDWLKADIFLLLALIGLIIVYIIGCCAFRNAETEDIFRKYKQGYT
With B1, the binding result is given as “binds”.
